Laboratory results: PubChem BioAssay AID504764 (Drosophila RNAi Screening Center, 2011)

Test: 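Knock-downs that raise or lower a Notch target reporter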 (primary screen)
Cell system: Drosophila Kc167 cells
Reagent: long dsRNA against Drosophila genes
Time to read-out: about 5 days (4 days dsRNA, then 24 h after transfection)
Conditions: transfection of constitutively active membrane-tethered Notch lacking the extracellular domain, read 24 h later
Read-out: 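Light from a Notch-responsive E(spl)m3 luciferase reporter under active Notch, with control-promoter and no-Notch reporter wells to normalise; raw counts from paired wells a and b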
Scale: induced reporter light, run 1, well a and induced reporter light, run 1, well b: higher = more light from the Notch target reporter with active Notch; control promoter light, run 1, well a and control promoter light, run 1, well b: higher = more light from the viral control promoter (cell number, transfection, viability); uninduced reporter light, run 1, well a: higher = more light from the Notch target reporter without active Notch
Call rule: 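Hit if the duplicate-averaged log2 ratio of induced to control-promoter light gives a plate-wise z beyond ±2, or induced to uninduced beyond ±1.8; weak-control or discordant-duplicate wells dropped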
Meaning of the calls: active = modifier hit (raised or lowered Notch signal); inactive = not a hit
The screen tested about 22,000 reagents; this is an unselected part of those with a known target gene and a result. Of all reagents, 403 (1.9%) were called active. 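Unnormalised raw counts per well; ratio z-scores behind the hit calls and whether each hit raises or lowers signal are not deposited.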 Not stated in the record: the amount of reagent.

hrm (GeneID 35499) [DRSC04853] showed induced reporter light, run 1, well a = 1.57e5; induced reporter light, run 1, well b = 1.48e5; control promoter light, run 1, well a = 1.83e5; control promoter light, run 1, well b = 1.79e5; uninduced reporter light, run 1, well a = 9345; inactive.
Depletion of CG7173 (GeneID 40392) [DRSC11812] came out at: induced reporter light, run 1, well a = 7930; induced reporter light, run 1, well b = 5720; control promoter light, run 1, well a = 6942; control promoter light, run 1, well b = 5425; uninduced reporter light, run 1, well a = 3860; inactive.
Silencing of CG17237 (GeneID 33411) [DRSC00491] gave: induced reporter light, run 1, well a = 1.06e5; induced reporter light, run 1, well b = 1.31e5; control promoter light, run 1, well a = 1.14e5; control promoter light, run 1, well b = 81130; uninduced reporter light, run 1, well a = 11050; inactive.
Silencing of CG10298 (GeneID 40779) [DRSC12522] gave: induced reporter light, run 1, well a = 86640; induced reporter light, run 1, well b = 98945; control promoter light, run 1, well a = 91575; control promoter light, run 1, well b = 76250; uninduced reporter light, run 1, well a = 5665; inactive.

Quoted from the listing for reference:
hrm (GeneID 35499) [DRSC04853]: induced reporter light, run 1, well a = 1.57e5; induced reporter light, run 1, well b = 1.48e5; control promoter light, run 1, well a = 1.83e5; control promoter light, run 1, well b = 1.79e5; uninduced reporter light, run 1, well a = 9345; activity call = inactive
CG7173 (GeneID 40392) [DRSC11812]: induced reporter light, run 1, well a = 7930; induced reporter light, run 1, well b = 5720; control promoter light, run 1, well a = 6942; control promoter light, run 1, well b = 5425; uninduced reporter light, run 1, well a = 3860; activity call = inactive

Next results follow:
Silencing of upSET (GeneID 39551) [DRSC11051] gave: induced reporter light, run 1, well a = 17165; induced reporter light, run 1, well b = 15935; control promoter light, run 1, well a = 7815; control promoter light, run 1, well b = 7695; uninduced reporter light, run 1, well a = 6865; inactive.
Against Ufd4 (GeneID 34378) [DRSC02871] the deposit lists induced reporter light, run 1, well a = 83875; induced reporter light, run 1, well b = 87115; control promoter light, run 1, well a = 40115; control promoter light, run 1, well b = 63560; uninduced reporter light, run 1, well a = 11635; inactive.
After knock-down of Neto (GeneID 32303) [DRSC18982], the screen gave induced reporter light, run 1, well a = 2.02e5; induced reporter light, run 1, well b = 1.92e5; control promoter light, run 1, well a = 3.39e5; control promoter light, run 1, well b = 3.05e5; uninduced reporter light, run 1, well a = 16465; inactive.
With knock-down of Neto (GeneID 32303) [DRSC19503], the screen gave induced reporter light, run 1, well a = 38740; induced reporter light, run 1, well b = 39450; control promoter light, run 1, well a = 45130; control promoter light, run 1, well b = 44740; uninduced reporter light, run 1, well a = 3310; inactive.
Neto (GeneID 32303) [DRSC19716] gave induced reporter light, run 1, well a = 1.42e5; induced reporter light, run 1, well b = 1.25e5; control promoter light, run 1, well a = 2.40e5; control promoter light, run 1, well b = 2.50e5; uninduced reporter light, run 1, well a = 7610; inactive.
Neto (GeneID 32303) [DRSC19717] scored induced reporter light, run 1, well a = 1.20e5; induced reporter light, run 1, well b = 1.21e5; control promoter light, run 1, well a = 2.25e5; control promoter light, run 1, well b = 1.91e5; uninduced reporter light, run 1, well a = 10855; inactive.
For Lgr3 (GeneID 43098) [DRSC15704], the entry reads induced reporter light, run 1, well a = 1.58e5; induced reporter light, run 1, well b = 1.47e5; control promoter light, run 1, well a = 1.71e5; control promoter light, run 1, well b = 1.85e5; uninduced reporter light, run 1, well a = 15230; inactive.
With knock-down of Lgr3 (GeneID 43098) [DRSC15706] the results were induced reporter light, run 1, well a = 1.40e5; induced reporter light, run 1, well b = 1.95e5; control promoter light, run 1, well a = 2.11e5; control promoter light, run 1, well b = 2.00e5; uninduced reporter light, run 1, well a = 13570; inactive.
